Positions count from the first letter of the chain named. These are yes or no findings as the source states them, for the method shown. Binding seen in cells or lysates may run through a third protein. Some results given as binding are weak or reduced against the parent protein; the word gives no strength. Tags and fused reporters may be left off the sequences shown.
How the values were obtained:
Assay in all cases: co-IP; 293T cells transfected with HA-PRR11 (WT, fragments or mutants) and Flag-GSK3β or Flag-FBXW7 (WT or mutants); MG132 10 μM for 6 h before collection; IP with HA or Flag antibody, Protein A/G magnetic beads, Western blot; in some panels λ-PPase added to extracts, CHIR-99021, siGSK3β or GSK3β overexpression
[1] = biological target: T1, HA-PRR11-2Δ (L325_T330del) (human) (UniProt Q96HE9)
T1 sequence: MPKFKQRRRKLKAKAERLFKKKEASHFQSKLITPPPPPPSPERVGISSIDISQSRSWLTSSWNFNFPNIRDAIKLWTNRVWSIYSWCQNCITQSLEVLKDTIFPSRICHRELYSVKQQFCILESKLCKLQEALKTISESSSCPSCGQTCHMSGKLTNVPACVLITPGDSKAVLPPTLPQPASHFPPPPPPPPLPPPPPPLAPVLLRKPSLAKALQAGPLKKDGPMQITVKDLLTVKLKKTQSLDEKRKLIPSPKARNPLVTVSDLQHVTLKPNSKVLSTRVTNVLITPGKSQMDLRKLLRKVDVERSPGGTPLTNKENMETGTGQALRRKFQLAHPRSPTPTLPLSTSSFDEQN

Amino acid sequences for entries named in this document (tags omitted).
UniProt Q969H0: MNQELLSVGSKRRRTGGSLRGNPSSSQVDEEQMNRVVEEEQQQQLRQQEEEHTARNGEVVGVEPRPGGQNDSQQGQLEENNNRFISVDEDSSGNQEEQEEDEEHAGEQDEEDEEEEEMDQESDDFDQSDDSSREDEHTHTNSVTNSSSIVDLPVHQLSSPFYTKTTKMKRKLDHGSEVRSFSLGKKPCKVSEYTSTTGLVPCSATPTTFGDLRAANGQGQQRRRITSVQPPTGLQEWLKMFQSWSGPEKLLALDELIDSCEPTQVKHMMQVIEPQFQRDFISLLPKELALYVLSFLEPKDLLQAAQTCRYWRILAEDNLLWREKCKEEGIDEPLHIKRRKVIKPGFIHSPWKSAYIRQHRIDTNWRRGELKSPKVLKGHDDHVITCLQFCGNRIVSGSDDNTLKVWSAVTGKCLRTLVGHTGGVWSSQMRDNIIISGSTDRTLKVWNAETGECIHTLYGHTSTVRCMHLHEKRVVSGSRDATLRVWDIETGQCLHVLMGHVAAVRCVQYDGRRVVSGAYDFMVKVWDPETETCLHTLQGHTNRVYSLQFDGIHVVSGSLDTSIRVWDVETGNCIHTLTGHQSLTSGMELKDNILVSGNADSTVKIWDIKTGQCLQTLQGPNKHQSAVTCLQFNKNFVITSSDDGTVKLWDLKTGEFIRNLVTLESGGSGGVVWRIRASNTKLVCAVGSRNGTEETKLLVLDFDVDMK

[2] = biological target: T2, HA-PRR11-2D (T326D/T330D) (human) (UniProt Q96HE9)
T2 sequence: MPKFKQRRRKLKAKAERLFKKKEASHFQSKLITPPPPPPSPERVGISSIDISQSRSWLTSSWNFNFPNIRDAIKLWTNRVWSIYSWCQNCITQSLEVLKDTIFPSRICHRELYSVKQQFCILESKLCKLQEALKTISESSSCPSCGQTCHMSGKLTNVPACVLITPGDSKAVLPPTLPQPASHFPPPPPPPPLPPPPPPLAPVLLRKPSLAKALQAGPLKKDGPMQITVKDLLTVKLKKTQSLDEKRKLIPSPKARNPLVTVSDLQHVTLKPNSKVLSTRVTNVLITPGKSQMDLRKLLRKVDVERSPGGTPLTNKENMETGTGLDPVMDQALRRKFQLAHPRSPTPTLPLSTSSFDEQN

[3] = biological target: T3, HA-PRR11-1D/2D (T287D/S291D/T326D/T330D) (human) (UniProt Q96HE9)
T3 sequence: T2 sequence with T287D, S291D

[4] = biological target: T4, HA-PRR11-1A/2A (T287A/S291A/T326A/T330A) (human) (UniProt Q96HE9)
T4 sequence: T2 sequence with T287A, S291A, D326A, D330A

[5] = biological target: T5, HA-PRR11 (amino acids 251-360) (human) (UniProt Q96HE9)
T5 sequence: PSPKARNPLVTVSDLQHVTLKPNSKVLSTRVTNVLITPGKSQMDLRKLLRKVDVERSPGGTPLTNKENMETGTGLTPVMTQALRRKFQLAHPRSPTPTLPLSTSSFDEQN

- binding [1]: binds
- binding [2]: binds
- binding [3]: binds
- binding [4]: binds
- binding [5]: binds
Substance: Flag-FBXW7 (from UniProt Q969H0 1-707)

Reference: article PMC11898301
